A: 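Whole-cell assay for inhibitors of Mycobacterium tuberculosis growth, labelled Cornell in the record; the read-out is not stated. The concentration is filed as 10 mM, unlikely as a test dose, so the dose is not known. Higher means stronger inhibition (inferred from two other growth screens of the library). Of about 53,000 compounds tested this way, about 900 (1.7%) reached 50% or more in at least one test.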
B: 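Assay on Mycobacterium tuberculosis, filed only as a heat shock assay from Cornell; the read-out is not stated. The concentration is filed as 10 mM, unlikely as a test dose, so the dose is not known. The record gives no direction; compounds that gave an IC50 in retests scored well above the rest, so higher reads as stronger inhibition. Of about 69,000 compounds tested this way, about 930 (1.4%) reached 50% or more in at least one test.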

The filed quantity is “Percent Effect” (%). The controls that fix the scale are not given in the record; negative values are as filed. Compounds were drawn at random from those tested, without regard to their results. A dash means the value is not listed here; it may have been measured.

structure,A,B
N#Cc1cccc(C(=O)N2CCc3ncc(Cn4cccn4)n3CC2)c1,-1.825,-9.284
O=S1(=O)NC2(CCCN(Cc3ccc(F)cc3)C2)COc2ccccc21 (centres unmarked),-,-22.65
CN(Cc1ccccc1OC(F)(F)F)C(=O)C1CCCN(C(N)=O)C1 (centres unmarked),25.76,92.25
Cc1ccc(-c2ncc(C(=O)NCCNC(=O)C(C)C)s2)c(C)c1,15.07,19.86
CC(=O)N(CCc1ccccc1)CC(=O)NC1(C#N)CC1,-27.08,-11.74
CC(C)CC(O)C1CCN(Cc2cnc(-c3cccs3)nc2)CC1 (centres unmarked),-0.6989,-8.507
COc1cccc2c1OCC(NC(=O)NCCC(N)=O)C2 (centres unmarked),-,-12.18
COC(=O)C1CN(CC(=O)Nc2ccccc2Cl)c2ccccc21 (centres unmarked),9.922,-12.05
Cc1cc(C(=O)Nc2cccn(Cc3ccc(F)cc3)c2=O)on1,21.2,6.967
Cc1nc(CCNc2nc(N(C)C)nc3c2CCCC3)cc(=O)[nH]1,-8.079,3.244
Cc1cc(N2CCCN(Cc3ccc(C)o3)CC2)ccn1,-93.78,-14.13
c1cnc2c(CN3CCCCC3c3ccncn3)cnn2c1 (centres unmarked),10.42,-2.149
Cc1cccc(CN2CCC(NCC3CNc4cc(C)nn4C3)CC2)c1 (centres unmarked),-,108.8
CCC(=O)NCC(=O)N(C)C(c1ccc(Cl)cc1)c1cccnc1 (centres unmarked),21.64,-4.587
O=C(O)C(F)(F)F.O=C(O)C(F)(F)F.[H][C@]12CCCC(OCc3cccnc3)[C@@]1([H])CN(C(=O)c1ccc(C)nc1)C2 (some centres unmarked),-10.07,-6.196
CCN(CC)CCn1ccnc1-c1[nH]cnc1C,8.834,-2.23
Cc1ncsc1CN1CC2(CCCC2)CC1=O,-,-2.459
CCc1cc2c(N3CCCC(c4cc(C(N)=O)[nH]n4)C3)ncnc2s1 (centres unmarked),35.91,8.978
COc1cccn(CC(=O)N(C)Cc2ccoc2)c1=O,-26.76,11.68
COc1ccc(C)cc1NC(=O)CNc1ccn(CC(N)=O)n1,-1.231,7.314
[H][C@]12CC[C@]([H])(CN(Cc3cccnc3N)C1)N(CC1CC1)C2=O,3.585,-11.72
CNC(=O)C(C)(C)N1CCC[C@H]1C(=O)NC1CC1,-,-11.24
O=C(O)C(F)(F)F.[H][C@@]12OCCN(c3ncc(F)cn3)[C@@]1([H])CC[C@H]2OCC(=O)N(C)C,-17.56,7.03
CCOc1ccccc1C(C(=O)O)N(C)Cc1cc(C)[nH]n1 (centres unmarked),17.1,13.6
CC(CO)NC(=O)c1ccc(NCc2cc(C#N)ccc2F)cc1 (centres unmarked),13.62,16.51
CNC(=O)[C@@H]1C[C@@H](n2cc(-c3ccc(Cl)cc3)nn2)CN1,-,-1.519
O=C1CCN(C(=O)NCCCc2ccc(Cl)cc2Cl)CCN1,19.42,0.4515
Cn1nc2c(cc1=O)CN(CCN1CCCC1=O)CC2,-,4.043
COc1ccccc1OC1CN(C(=O)Cc2c(C)nc3ccccn23)C1,0.5626,-4.694
COc1ccc2cccc(CC(=O)NCCc3n[nH]c(=O)[nH]3)c2c1,16.05,3.668
NC(=O)CN1CC2(CCC1=O)CCN(Cc1cc(F)cc(F)c1)CC2,-1.93,-15.98
COc1ccc(F)cc1C(C)NC(=O)NCCCn1cncn1 (centres unmarked),-,-7.433
Cc1c[nH]c(CN2CCOC(c3ccc(F)cc3)C2)c(C)c1=O (centres unmarked),19.37,5.601
Cn1cnc(S(=O)(=O)N2CC3(CCN(CC4CC4)C3)C2)c1.O=C(O)C(F)(F)F.O=C(O)C(F)(F)F,-22.6,2.143
CCOc1ccccc1C(C(=O)O)N(C)Cc1nnc(C)o1 (centres unmarked),-20.43,2.864
Cc1ccccc1CN(C)C(=O)CN1CCOC(Cn2cccn2)C1 (centres unmarked),-,-28.34
CN(C)[C@@H]1CCN(C(=O)c2ccccn2)[C@H]1Cc1ccncc1,17.51,0.1149
CCCc1noc2ncc(C(=O)N3CCCC3c3cnn(C)c3)cc12 (centres unmarked),-,-6.557
CNc1nc2c(c(C(=O)N3CCCC3)n1)CN(C(=O)c1cccs1)CC2,6.912,-1.687
Cn1cc(-c2noc(C3(C)CCOCC3)n2)cn1,-,-1.021
CCc1c(C)nc2n(c1=O)CC(C(=O)Nc1nccs1)CS2 (centres unmarked),-2.517,13.24
CC(=O)c1cc(CN2C[C@@H](N(C)C)[C@H](C(C)C)C2)cs1,-,3.19
Cc1nc(CN2CCN(C(=O)CCc3cccnc3)CC2)no1,-,6.868
CC(C)N1CCCC1c1cc(C(F)(F)F)[nH]n1 (centres unmarked),7.836,0.8245
Cc1cc(-c2cnn(CCNC(=O)C3CCCO3)c2C2CC2)on1 (centres unmarked),11.76,-1.723
COCCOc1ncccc1C(=O)Nc1ccc(-n2cncn2)c(F)c1,-,5.492
Cl.Cl.c1ccc(COC[C@@H]2CCC[C@@]23CNCCO3)nc1,-12.01,33.86
O=S(=O)(c1ccc(Cl)s1)N1CCN(Cc2nc(-c3ccco3)cs2)CC1,13.03,-3.908
O=C(c1cnc(-c2ccco2)s1)N1CCCCC1Cn1cccn1 (centres unmarked),3.181,2.525
COCc1cnc2n1CCN(C(=O)c1cn(C)c3ccccc13)C2C (centres unmarked),-9.6,28.14
O=C1CN(C(=O)C2CCCOC2)CCN1Cc1ccc(Cl)cc1 (centres unmarked),10.54,-2.837
CCOC(C)c1noc(CN(C)C(=O)C2C(C)(C)C2(C)C)n1 (centres unmarked),9.061,6.407
CCn1cnnc1C1CCN(C(=O)c2cnn(C(C)(C)C)c2)CC1,33.63,10.4

Source: ChEMBL document CHEMBL3988442, “University of Dundee, Small-Polar-MMV Screening Library” (2021).